Drawing on publication PMC12060179, this text covers binding for 2 substances.

By UniProt entry, the sequences of proteins in these tests, tags left out.
UniProt P06730: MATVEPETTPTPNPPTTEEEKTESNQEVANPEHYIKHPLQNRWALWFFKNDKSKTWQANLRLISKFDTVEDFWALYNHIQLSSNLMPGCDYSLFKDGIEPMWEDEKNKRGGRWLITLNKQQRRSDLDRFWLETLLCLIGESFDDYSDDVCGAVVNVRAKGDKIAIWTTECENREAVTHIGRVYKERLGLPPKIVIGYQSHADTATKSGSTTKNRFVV
UniProt P41091: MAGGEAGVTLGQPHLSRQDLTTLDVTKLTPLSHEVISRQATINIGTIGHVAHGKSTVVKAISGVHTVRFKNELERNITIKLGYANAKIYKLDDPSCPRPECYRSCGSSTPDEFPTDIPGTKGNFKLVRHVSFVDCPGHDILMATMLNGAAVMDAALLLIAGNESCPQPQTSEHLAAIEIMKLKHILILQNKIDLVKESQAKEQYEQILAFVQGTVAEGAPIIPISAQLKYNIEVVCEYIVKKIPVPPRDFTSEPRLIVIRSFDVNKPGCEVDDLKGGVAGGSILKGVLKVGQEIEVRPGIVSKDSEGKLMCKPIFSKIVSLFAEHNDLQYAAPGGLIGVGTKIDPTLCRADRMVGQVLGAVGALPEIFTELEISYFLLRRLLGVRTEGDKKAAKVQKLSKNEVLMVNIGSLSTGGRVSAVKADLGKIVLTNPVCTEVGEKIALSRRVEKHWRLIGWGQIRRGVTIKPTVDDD

No constants are given. Whether binding was seen depends on the method and setting. Some binding calls cover weakened binding; strength is not graded here.

Experiment [1] concerns the target T1, YTHDF1 (in vitro pull-down) (human) (UniProt Q9BYJ9).
T1 sequence: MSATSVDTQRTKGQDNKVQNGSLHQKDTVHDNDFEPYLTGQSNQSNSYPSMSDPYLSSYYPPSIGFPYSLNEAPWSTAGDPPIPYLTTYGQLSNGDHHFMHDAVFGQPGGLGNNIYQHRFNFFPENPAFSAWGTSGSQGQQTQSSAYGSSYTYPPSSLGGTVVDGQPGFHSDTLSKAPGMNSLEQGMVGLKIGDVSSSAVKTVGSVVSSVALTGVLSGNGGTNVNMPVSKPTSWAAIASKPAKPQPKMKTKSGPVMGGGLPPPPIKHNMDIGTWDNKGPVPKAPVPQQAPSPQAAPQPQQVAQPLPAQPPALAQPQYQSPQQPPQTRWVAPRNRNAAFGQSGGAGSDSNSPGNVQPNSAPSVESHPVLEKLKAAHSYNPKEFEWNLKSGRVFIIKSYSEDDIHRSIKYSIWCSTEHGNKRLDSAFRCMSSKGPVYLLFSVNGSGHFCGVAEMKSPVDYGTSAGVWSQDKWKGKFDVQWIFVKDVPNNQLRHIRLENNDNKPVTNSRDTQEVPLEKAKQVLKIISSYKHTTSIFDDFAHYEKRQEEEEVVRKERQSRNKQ
In words: pull-down; in vitro pull-down; bait and conditions not told in what was shown; both purified.

The target in experiment [2] is T2, YTHDF3 (in vitro pull-down) (UniProt Q7Z739).
T2 sequence: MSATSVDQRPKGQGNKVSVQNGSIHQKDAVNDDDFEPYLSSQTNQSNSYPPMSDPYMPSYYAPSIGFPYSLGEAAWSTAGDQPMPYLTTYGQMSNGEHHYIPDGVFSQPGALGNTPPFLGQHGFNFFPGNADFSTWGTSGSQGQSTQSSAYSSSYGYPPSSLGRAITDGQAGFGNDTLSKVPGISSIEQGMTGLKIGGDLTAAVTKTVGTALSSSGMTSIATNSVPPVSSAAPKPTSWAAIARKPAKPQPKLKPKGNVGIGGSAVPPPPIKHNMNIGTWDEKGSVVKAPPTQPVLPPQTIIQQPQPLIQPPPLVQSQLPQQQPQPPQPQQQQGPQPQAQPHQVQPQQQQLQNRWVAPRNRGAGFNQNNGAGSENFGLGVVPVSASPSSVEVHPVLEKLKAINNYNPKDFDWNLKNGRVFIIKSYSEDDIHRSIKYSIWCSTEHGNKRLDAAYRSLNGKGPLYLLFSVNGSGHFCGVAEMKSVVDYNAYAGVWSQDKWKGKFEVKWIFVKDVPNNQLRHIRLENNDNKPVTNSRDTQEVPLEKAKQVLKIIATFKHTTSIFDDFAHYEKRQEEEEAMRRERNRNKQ
The experiment is described as above.

As to EIF4E (from UniProt P06730 1-217), the binding result in experiment [1] and in experiment [2] was “binds” in each case.

“EIF2S3 (in vitro pull-down) (from UniProt P41091 1-472)”: the binding entry in experiment [1] and in experiment [2] was “binds” each time.
